From the supplement of paper PMC6078165
Values are relative to the signal before dosing, not to a vehicle control; the signal also falls without drug.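 Fibroblast labels denote human fibroblasts, mainly primary ones from uterus (C12385, HUF), lung (H6013), bone (Hs27A), adrenal (HADF) and skin (WS1), plus mammary HMF and breast cancer-associated Hs343T. Cancer cells are basal-like or mesenchymal-like triple-negative breast cancer lines. A hit is a response shift exceeding 3x replicate standard deviation. The tissue of the other fibroblasts is not given here.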

System: Hs578T
Assay: relative JC-1 red fluorescence (viability) vs pre-drug, coculture with fibroblast (fraction); higher = more viable cancer cells
Conditions: 100 µM
Method: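 JC-1 labelled TNBC cells cocultured 1:1 (1,500 cells each) with CellTrace Violet stained primary or stromal fibroblasts in 384-well plates in FluoroBrite medium, treated with one of 42 anticancer drugs at 0.1, 1, 10 or 100 uM. JC-1 red fluorescence (mitochondrial integrity in cancer cells only) was read by plate reader every 8 h for 72 h. Values are normalised to each well's pre-drug value. The stock of one drug was tenfold lower, so its dose labels may be too high.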

CC(C)C[C@H](NC(=O)[C@@H](COC(C)(C)C)NC(=O)[C@H](Cc1ccc(O)cc1)NC(=O)[C@H](CO)NC(=O)[C@H](Cc1c[nH]c2ccccc12)NC(=O)[C@H](Cc1cnc[nH]1)NC(=O)[C@@H]1CCC(=O)N1)C(=O)N[C@@H](CCCNC(=N)N)C(=O)N1CCC[C@H]1C(=O)NNC(N)=O [Goserelin]
Conditions	relative JC-1 red fluorescence
8 h	0.916
16 h	0.8207
24 h	0.784
32 h	0.752
40 h	0.696
48 h	0.654
56 h	0.632
64 h	0.59
72 h	0.574

relative JC-1 red fluorescence
Conditions	8 h	16 h	24 h	32 h	40 h	48 h	56 h	64 h	72 h
coculture fibroblast: C12385	0.8469	0.7439	0.758	0.673	0.624	0.594	0.567	0.556	0.545
coculture fibroblast: H6013	0.928	0.858	0.844	0.829	0.799	0.789	0.769	0.757	0.73
coculture fibroblast: H6019	0.8043	0.712	0.6702	0.576	0.528	0.4964	0.465	0.436	0.407
coculture fibroblast: H6076	0.904	0.813	0.809	0.8023	0.7793	0.787	0.78273	0.789	0.801
coculture fibroblast: H6231	0.902	0.805	0.768	0.742	0.679	0.655	0.623	0.603	0.592
coculture fibroblast: HADF	0.935	0.869	0.818	0.789	0.748	0.716	0.674	0.657	0.618
coculture fibroblast: HCFa	0.879	0.806	0.773	0.724	0.669	0.646	0.617	0.604	0.565
coculture fibroblast: HCPF	0.906	0.8	0.757	0.734	0.686	0.668	0.658	0.61	0.5912
coculture fibroblast: HHSteC	0.93	0.826	0.769	0.725	0.676	0.649	0.62	0.596	0.56
coculture fibroblast: HMF	0.9201	0.811	0.773	0.744	0.692	0.655	0.616	0.587	0.569
coculture fibroblast: HPFa	0.912	0.837	0.777	0.719	0.67	0.637	0.591	0.565	0.515
coculture fibroblast: HUF	0.8885	0.76862	0.739	0.621	0.563	0.523	0.486	0.471	0.459
coculture fibroblast: Hs27A	0.8918	0.842	0.798	0.759	0.701	0.676	0.635	0.616	0.564
coculture fibroblast: Hs343T	0.95	0.8452	0.793	0.776	0.704	0.668	0.622	0.591	0.57
coculture fibroblast: WS1	0.812	0.746	0.6672	0.565	0.505	0.477	0.441	0.424	0.407
